Source: publication PMC8461913
These are yes or no findings as the source states them, for the method shown. Binding seen in cells or lysates may run through a third protein. Sequences can lack the tags named with a protein.

Amino acid sequences for entries named in this document (tags omitted).
UniProt Q99081: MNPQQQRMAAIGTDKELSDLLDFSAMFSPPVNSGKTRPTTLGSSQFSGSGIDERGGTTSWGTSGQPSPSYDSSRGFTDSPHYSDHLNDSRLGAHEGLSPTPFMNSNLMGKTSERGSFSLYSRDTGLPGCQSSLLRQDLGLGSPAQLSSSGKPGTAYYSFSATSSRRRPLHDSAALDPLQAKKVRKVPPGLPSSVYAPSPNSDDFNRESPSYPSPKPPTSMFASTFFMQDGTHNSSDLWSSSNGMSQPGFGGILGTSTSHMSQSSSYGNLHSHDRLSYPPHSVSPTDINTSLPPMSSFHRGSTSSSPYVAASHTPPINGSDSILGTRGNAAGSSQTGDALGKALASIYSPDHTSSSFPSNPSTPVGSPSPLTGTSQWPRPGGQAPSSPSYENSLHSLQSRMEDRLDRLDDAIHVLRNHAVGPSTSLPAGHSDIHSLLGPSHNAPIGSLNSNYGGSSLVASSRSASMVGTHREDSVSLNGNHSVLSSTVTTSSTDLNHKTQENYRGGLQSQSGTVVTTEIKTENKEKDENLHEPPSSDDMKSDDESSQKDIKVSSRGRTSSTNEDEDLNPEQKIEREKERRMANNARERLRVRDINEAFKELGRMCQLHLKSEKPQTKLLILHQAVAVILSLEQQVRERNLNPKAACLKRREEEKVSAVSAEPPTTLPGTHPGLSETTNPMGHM
UniProt P08047: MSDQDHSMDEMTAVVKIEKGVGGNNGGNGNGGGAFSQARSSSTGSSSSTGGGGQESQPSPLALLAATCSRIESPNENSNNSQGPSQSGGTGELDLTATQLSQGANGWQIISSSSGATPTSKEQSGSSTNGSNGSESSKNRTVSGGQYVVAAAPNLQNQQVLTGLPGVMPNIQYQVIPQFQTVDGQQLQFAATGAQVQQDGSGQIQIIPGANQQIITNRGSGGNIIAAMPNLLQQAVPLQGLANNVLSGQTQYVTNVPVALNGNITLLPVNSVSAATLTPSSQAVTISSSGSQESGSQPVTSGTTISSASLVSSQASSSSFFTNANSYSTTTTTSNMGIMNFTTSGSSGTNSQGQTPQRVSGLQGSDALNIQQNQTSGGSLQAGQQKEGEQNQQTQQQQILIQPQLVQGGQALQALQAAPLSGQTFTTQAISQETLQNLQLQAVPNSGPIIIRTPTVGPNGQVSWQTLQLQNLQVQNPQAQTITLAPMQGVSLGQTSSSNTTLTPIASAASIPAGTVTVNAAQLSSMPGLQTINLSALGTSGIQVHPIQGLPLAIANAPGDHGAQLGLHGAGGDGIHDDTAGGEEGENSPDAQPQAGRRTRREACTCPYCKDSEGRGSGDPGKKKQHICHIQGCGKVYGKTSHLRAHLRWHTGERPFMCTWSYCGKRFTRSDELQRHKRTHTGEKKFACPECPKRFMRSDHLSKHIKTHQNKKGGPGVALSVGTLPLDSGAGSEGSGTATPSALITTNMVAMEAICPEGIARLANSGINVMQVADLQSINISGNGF

T1: Flag-tagged midkine (MDK) (human) (UniProt P21741)
T1 sequence: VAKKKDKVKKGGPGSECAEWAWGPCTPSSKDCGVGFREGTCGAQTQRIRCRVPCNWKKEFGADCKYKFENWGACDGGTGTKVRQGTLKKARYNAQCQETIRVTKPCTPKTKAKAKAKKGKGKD

B1: 5'-3' exoribonuclease 2 (XRN2) (protein, UniProt Q9H0D6 1-950)
chain: MGVPAFFRWLSRKYPSIIVNCVEEKPKECNGVKIPVDASKPNPNDVEFDNLYLDMNGIIHPCTHPEDKPAPKNEDEMMVAIFEYIDRLFSIVRPRRLLYMAIDGVAPRAKMNQQRSRRFRASKEGMEAAVEKQRVREEILAKGGFLPPEEIKERFDSNCITPGTEFMDNLAKCLRYYIADRLNNDPGWKNLTVILSDASAPGEGEHKIMDYIRRQRAQPNHDPNTHHCLCGADADLIMLGLATHEPNFTIIREEFKPNKPKPCGLCNQFGHEVKDCEGLPREKKGKHDELADSLPCAEGEFIFLRLNVLREYLERELTMASLPFTFDVERSIDDWVFMCFFVGNDFLPHLPSLEIRENAIDRLVNIYKNVVHKTGGYLTESGYVNLQRVQMIMLAVGEVEDSIFKKRKDDEDSFRRRQKEKRKRMKRDQPAFTPSGILTPHALGSRNSPGSQVASNPRQAAYEMRMQNNSSPSISPNTSFTSDGSPSPLGGIKRKAEDSDSEPEPEDNVRLWEAGWKQRYYKNKFDVDAADEKFRRKVVQSYVEGLCWVLRYYYQGCASWKWYYPFHYAPFASDFEGIADMPSDFEKGTKPFKPLEQLMGVFPAASGNFLPPSWRKLMSDPDSSIIDFYPEDFAIDLNGKKYAWQGVALLPFVDERRLRAALEEVYPDLTPEETRRNSLGGDVLFVGKHHPLHDFILELYQTGSTEPVEVPPELCHGIQGKFSLDEEAILPDQIVCSPVPMLRDLTQNTVVSINFKDPQFAEDYIFKAVMLPGARKPAAVLKPSDWEKSSNGRQWKPQLGFNRDRRPVHLDQAAFRTLGHVMPRGSGTGIYSNAAPPPVTYQGNLYRPLLRGQAQIPKLMSNMRPQDSWRGPPPLFQQQRFDRGVGAEPLLPWNRMLQTQNAAFQPNQYQMLAGPGGYPPRRDDRGGRQGYPREGRKYPLPPPSGRYNWN

Target: T1, Flag-tagged midkine (MDK) (human)
Assay: co-IP; lysate of MDK-overexpressing A172 cells; antibody or control IgG on Protein-G Sepharose beads, 2 h at 4 °C; three washes with extraction buffer; SDS-PAGE and immunoblotting

Molecule | binding
transcription factor 12 (TCF12) (from UniProt Q99081 1-682) | no binding
Sp1 transcription factor (SP1) (from UniProt P08047 1-785) | no binding
B1 | no binding
